Binding data for 1 molecule are collected here from CN117024595A.

The chains behind the UniProt entries cited, without tags or fusion partners. Residues count along the entry.
UniProt Q01638, residues 19-328: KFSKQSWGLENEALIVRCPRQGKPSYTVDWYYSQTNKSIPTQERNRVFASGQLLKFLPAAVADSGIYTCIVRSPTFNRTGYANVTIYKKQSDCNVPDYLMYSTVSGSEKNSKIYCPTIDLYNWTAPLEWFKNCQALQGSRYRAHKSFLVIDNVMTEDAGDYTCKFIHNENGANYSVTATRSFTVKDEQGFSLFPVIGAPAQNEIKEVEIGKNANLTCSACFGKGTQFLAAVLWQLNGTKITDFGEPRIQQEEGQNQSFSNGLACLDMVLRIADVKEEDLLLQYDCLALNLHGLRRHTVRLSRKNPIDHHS

Results are given in words; binding and its absence hold for the method and conditions named. Some entries that bind do so weakly or less than the wild type.

The target of assay [1] is 人ST2抗原 (human) (UniProt Q01638). As to the kind of experiment: double-antibody sandwich ELISA with C11, OD450. On the technique in general: An ELISA detects its analyte on a solid surface through an enzyme-linked reagent.
Assay [2] shares this target. The assay can be described thus: fluorescent immunochromatographic strip, C11 on the T line, D12 on fluorescent microspheres.

B1: 检测抗体D12(抗人ST2的单克隆抗体) (antibody, V domains shown)
VH: QVTLKESGPGILQPSQTLSLTCSFSGFSLSTSGMGVGWIRQPSGKGLEWLAHIWWDDVKQYNPALKSRLTISKDTSSSQVFLKIASVDTADIATYYCARLGGNWDYFDYWGQGTTLTVSS
VL: DIVLTQSPASLVVSLGQRATISCRASESVDSCGVSFMKWLQQKPGQPPKLLIYVASKVESGVPARFGGSGSGTDFSLNIHPVEEDDFAVYFCQQSRKVPWTFGGGTKLEIK
For the molecule B1, the binding result in the assay with 人ST2抗原 (human) [1] and with 人ST2抗原 (human) [2] was “binds” in each case.
